Drawing on patent publication US20180230236A1, this text covers binding for one molecule.

The target in this experiment is T1, IgE epsilon chain peptide … (shared sequence of two adjacent SPOTS 13mer peptides) (canine).
T1 sequence (peptide, synthesised on a cellulose membrane): QKATNIFPYTAPG
The experiment in a line: SPOTS ELISA on cellulose membrane peptide array. In general terms: ELISA stands for enzyme-linked immunosorbent assay.

No constants are given. Whether binding was seen depends on the method and setting. Some binding calls cover weakened binding; strength is not graded here.

B1: monoclonal antibody (mAb) 5.91 (antibody, V domains shown)
VH: EVQLQQSGPELVKPGASMKISCKASGYSITGYTIHWVKQSHGKNLEWIGLINPYTGGITYNQNFKGKATLTVDKSSSTAYMELLSLTSEDSAVYYCSRGPYGNFYAMDYWGQGTSVTVSS
VL: DIQMTQSPASLSASVGETVTITCRASGNIHNYLAWYQQKQGKSPQLLVYNAKTLADSVPSRFSGSGSGTQFSLKINSLQPEDFGSYYCQHFWSTPYTFGGGTKLEIKR
modifications: antibody biotinylated in ELISA and SPOTS ELISA; sites not stated
Consider B1, for which the binding result is given as “binds”.
